Data as given in PubChem BioAssay AID652243 (Drosophila RNAi Screening Center, 2013)
The deposit covers about 24,000 reagents; below is an unselected part of those with a known target gene and a result. Over the whole deposit, 246 (1%) were called active. 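Plates not normalised; calls are printed but the firefly/Renilla ratio behind them is not deposited; fold cut for lowering reported inconsistently.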 Raw values are not corrected between plates. Unmarked entries are inactive. A plus sign joins genes that one reagent is predicted to hit. No sequences are given here. The record does not give: the amount of reagent.

Screen: 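Fly genes required for human androgen receptor driven transcription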 (primary screen)
Cells: Drosophila S2R+ cells
Knock-down reagent: long dsRNA against Drosophila genes
Timing: 72 h (48 h, then 24 h hormone)
Conditions: synthetic androgen R1881 at 10 nM for 24 h
Detection: 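Firefly light from an androgen-responsive reporter and Renilla control light per well, raw and unnormalised, for each of two replicates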
Reading the numbers: firefly reporter light: higher = more light from androgen-responsive reporter; Renilla control light: higher = more constitutive control signal (cell number, transfection)
Active means: 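Across duplicate plates, a knock-down whose log firefly/Renilla ratio shifted a set fold down or up from the GFP/LacZ control mean was a hit; the downward cut appears as both 1.5 and 3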
Meaning of the calls: active = hit: reporter lowered or raised; inactive = no hit

Which result is listed for Tmem18 (Transmembrane protein 18) [DRSC27312]?
firefly reporter light, replicate 1: 2.52e5; firefly reporter light, replicate 2: 2.50e5; Renilla control light, replicate 1: 9.04e5; Renilla control light, replicate 2: 8.43e5

What is on record for crol (crooked legs) [DRSC03514]?
firefly reporter light, replicate 1: 8.37e5; firefly reporter light, replicate 2: 9.20e5; Renilla control light, replicate 1: 1.93e6; Renilla control light, replicate 2: 2.59e6

With crol (crooked legs) [DRSC21348], how do the results read?
firefly reporter light, replicate 1: 7.89e5; firefly reporter light, replicate 2: 6.93e5; Renilla control light, replicate 1: 1.06e6; Renilla control light, replicate 2: 1.36e6

Which result is listed for crol (crooked legs) [DRSC26800]?
firefly reporter light, replicate 1: 3.59e5; firefly reporter light, replicate 2: 3.05e5; Renilla control light, replicate 1: 5.22e5; Renilla control light, replicate 2: 6.02e5

With mtDNA-helicase (mitochondrial DNA helicase) [DRSC02912], what was measured?
firefly reporter light, replicate 1: 98562; firefly reporter light, replicate 2: 1.19e5; Renilla control light, replicate 1: 8.08e5; Renilla control light, replicate 2: 8.63e5

What is on record for CG7920 [DRSC16346]?
firefly reporter light, replicate 1: 1.70e5; firefly reporter light, replicate 2: 1.22e5; Renilla control light, replicate 1: 1.30e6; Renilla control light, replicate 2: 1.28e6

Which result is listed for CG7920 [DRSC21594]?
firefly reporter light, replicate 1: 5.50e5; firefly reporter light, replicate 2: 5.74e5; Renilla control light, replicate 1: 1.01e6; Renilla control light, replicate 2: 1.10e6

How did the screen score park + Targ3 [DRSC11617]?
firefly reporter light, replicate 1: 59725; firefly reporter light, replicate 2: 86374; Renilla control light, replicate 1: 3.26e5; Renilla control light, replicate 2: 3.76e5

With CG18249 [DRSC15318], how do the results read?
firefly reporter light, replicate 1: 65605; firefly reporter light, replicate 2: 65998; Renilla control light, replicate 1: 3.49e5; Renilla control light, replicate 2: 3.61e5

How did the screen score mRpS5 (mitochondrial ribosomal protein S5) [DRSC21380]?
firefly reporter light, replicate 1: 6.00e5; firefly reporter light, replicate 2: 6.13e5; Renilla control light, replicate 1: 2.26e6; Renilla control light, replicate 2: 2.00e6

For CG9578 [DRSC20694], what was measured?
firefly reporter light, replicate 1: 1.04e5; firefly reporter light, replicate 2: 1.45e5; Renilla control light, replicate 1: 9.21e5; Renilla control light, replicate 2: 1.05e6

Which result is listed for CG9578 [DRSC29540]?
firefly reporter light, replicate 1: 2.99e5; firefly reporter light, replicate 2: 3.74e5; Renilla control light, replicate 1: 6.86e5; Renilla control light, replicate 2: 6.86e5

2 entries from above in another layout.
target,DRSC id,"firefly reporter light, replicate 1","firefly reporter light, replicate 2","Renilla control light, replicate 1","Renilla control light, replicate 2"
crol (crooked legs),DRSC21348,7.89e5,6.93e5,1.06e6,1.36e6
crol (crooked legs),DRSC26800,3.59e5,3.05e5,5.22e5,6.02e5
